Experimental data as given in the supplement of paper PMC10849652.
Some of the results follow.

Protein sequences, listed by entry. Tags and fused reporters are not part of them. Lines headed by an entry give the natural chain unless they say otherwise; changes in a name come on top.
UniProt Q14258, whole entry, looked up: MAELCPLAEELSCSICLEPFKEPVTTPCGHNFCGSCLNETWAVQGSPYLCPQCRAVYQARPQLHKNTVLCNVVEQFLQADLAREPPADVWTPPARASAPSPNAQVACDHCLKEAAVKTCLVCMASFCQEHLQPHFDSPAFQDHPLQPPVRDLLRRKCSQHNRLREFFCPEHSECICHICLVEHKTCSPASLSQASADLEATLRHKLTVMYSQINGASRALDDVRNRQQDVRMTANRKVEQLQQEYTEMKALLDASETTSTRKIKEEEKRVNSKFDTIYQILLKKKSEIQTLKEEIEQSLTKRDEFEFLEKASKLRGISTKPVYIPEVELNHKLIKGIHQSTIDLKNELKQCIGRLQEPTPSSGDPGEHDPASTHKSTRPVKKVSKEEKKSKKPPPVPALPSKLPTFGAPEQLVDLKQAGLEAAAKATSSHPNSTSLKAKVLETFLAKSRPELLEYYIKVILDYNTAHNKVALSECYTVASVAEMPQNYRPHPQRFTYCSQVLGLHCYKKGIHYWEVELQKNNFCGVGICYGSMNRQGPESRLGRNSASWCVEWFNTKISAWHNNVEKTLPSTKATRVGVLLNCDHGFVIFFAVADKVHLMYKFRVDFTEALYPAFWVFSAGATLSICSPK
UniProt Q96F44: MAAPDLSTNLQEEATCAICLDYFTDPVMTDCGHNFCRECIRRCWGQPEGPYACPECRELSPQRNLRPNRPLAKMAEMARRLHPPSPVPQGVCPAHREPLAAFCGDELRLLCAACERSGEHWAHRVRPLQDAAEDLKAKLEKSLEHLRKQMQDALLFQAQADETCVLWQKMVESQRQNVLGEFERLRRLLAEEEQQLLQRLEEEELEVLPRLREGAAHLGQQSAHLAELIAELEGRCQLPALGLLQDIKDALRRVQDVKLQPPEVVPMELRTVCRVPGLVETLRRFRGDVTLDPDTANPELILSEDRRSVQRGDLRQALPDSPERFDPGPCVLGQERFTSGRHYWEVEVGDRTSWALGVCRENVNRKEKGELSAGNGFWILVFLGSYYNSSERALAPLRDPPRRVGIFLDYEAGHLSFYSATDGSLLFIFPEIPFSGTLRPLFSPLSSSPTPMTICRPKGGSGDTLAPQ
UniProt P49815: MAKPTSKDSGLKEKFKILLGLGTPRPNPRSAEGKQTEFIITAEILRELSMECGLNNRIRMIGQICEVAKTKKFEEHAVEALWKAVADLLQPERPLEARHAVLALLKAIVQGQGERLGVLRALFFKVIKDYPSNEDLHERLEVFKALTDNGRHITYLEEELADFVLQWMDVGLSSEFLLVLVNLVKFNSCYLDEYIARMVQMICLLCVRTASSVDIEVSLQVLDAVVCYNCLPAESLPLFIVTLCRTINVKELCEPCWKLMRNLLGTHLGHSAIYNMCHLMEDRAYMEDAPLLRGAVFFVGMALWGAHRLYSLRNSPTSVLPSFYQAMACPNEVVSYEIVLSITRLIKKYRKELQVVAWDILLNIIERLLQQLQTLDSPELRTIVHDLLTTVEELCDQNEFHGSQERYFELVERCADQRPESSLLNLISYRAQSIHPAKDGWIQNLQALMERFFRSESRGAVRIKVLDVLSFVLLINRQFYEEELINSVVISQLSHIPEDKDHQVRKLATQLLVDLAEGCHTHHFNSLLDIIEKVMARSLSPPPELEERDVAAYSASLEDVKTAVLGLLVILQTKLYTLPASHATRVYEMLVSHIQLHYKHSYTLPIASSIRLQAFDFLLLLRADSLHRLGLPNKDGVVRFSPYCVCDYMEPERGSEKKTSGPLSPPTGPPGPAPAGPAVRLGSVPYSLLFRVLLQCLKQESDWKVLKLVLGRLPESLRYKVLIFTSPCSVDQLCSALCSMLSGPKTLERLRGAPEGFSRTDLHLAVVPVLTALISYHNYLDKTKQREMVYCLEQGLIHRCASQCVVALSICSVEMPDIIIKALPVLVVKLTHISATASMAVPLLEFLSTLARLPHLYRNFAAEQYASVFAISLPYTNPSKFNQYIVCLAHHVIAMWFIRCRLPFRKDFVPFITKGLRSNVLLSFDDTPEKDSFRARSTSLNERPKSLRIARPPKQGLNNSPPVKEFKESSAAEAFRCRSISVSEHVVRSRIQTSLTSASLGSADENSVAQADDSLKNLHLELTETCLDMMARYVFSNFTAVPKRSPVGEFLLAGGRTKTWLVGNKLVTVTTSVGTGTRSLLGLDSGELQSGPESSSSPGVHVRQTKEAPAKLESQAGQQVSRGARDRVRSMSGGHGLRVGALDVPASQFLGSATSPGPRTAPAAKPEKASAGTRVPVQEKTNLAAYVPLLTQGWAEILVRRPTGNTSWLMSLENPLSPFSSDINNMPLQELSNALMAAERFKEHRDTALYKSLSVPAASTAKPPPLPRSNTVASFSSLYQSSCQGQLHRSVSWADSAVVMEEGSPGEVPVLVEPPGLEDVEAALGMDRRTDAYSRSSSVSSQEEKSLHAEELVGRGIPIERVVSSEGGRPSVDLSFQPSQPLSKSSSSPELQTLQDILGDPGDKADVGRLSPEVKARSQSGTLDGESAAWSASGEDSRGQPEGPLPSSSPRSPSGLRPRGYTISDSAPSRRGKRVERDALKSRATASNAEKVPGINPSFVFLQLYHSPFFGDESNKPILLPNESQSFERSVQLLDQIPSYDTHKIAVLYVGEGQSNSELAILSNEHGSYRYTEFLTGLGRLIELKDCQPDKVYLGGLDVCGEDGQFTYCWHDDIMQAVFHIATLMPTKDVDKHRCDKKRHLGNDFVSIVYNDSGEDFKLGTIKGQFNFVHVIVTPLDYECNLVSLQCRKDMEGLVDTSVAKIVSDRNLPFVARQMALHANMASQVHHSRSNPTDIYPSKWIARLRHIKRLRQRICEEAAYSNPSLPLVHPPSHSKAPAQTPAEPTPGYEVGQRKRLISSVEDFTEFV
UniProt Q15642: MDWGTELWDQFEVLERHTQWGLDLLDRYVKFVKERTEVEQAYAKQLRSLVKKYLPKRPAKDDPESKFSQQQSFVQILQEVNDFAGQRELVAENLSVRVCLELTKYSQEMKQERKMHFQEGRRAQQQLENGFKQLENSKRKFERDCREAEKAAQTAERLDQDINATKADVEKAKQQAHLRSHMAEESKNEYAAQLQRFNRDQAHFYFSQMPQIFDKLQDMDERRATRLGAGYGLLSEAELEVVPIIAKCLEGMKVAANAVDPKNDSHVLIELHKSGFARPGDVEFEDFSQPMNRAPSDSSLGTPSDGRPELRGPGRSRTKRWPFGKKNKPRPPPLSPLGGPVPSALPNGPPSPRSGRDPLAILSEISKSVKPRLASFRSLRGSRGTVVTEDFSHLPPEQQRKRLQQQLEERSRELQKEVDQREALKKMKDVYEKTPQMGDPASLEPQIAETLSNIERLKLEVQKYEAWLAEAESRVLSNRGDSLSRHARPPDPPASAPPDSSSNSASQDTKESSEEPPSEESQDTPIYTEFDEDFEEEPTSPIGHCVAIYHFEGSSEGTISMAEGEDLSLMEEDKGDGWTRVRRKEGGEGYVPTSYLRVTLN
UniProt Q8WWH5: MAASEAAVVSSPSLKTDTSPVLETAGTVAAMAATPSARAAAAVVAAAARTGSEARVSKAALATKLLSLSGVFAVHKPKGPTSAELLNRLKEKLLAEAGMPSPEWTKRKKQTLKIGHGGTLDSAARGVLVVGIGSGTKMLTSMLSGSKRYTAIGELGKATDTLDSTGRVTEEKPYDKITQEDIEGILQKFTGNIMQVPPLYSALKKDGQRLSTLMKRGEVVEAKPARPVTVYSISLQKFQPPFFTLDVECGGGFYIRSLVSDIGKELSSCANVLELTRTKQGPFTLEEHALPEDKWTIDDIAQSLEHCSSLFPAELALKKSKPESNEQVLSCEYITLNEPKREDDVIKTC
UniProt O43617, whole entry, looked up: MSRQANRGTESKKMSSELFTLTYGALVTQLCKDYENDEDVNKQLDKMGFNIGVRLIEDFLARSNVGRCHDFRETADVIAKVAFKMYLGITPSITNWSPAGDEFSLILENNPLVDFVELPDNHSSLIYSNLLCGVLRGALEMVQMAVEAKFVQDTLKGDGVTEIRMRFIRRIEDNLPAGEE
UniProt Q9NUP7: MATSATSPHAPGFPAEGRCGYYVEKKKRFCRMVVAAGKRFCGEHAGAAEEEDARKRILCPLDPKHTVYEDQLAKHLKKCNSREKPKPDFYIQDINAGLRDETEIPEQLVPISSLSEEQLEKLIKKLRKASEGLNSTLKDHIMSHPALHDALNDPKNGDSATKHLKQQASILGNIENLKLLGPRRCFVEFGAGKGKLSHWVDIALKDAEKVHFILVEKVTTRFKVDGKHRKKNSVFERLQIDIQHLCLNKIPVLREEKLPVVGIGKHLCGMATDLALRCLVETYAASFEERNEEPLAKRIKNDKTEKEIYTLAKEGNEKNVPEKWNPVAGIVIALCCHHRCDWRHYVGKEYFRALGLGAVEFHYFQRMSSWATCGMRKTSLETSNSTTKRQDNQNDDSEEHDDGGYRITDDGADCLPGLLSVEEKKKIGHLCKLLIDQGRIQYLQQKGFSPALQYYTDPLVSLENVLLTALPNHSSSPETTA
UniProt O75648: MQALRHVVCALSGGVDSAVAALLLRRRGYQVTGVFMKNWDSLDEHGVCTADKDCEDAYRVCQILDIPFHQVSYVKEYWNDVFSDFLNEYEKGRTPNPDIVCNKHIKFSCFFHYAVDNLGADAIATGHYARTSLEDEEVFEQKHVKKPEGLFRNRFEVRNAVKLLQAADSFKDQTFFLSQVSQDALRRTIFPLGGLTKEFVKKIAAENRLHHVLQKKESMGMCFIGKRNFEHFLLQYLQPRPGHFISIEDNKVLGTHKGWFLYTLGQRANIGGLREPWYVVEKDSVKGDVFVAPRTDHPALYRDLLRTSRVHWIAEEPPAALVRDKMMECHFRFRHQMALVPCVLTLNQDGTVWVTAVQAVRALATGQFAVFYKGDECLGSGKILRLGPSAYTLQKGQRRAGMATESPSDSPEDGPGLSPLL

Experiments:
Experiment in all cases: log2 fold change, soluble protein after heating vs DMSO (PISA); higher = thermal stabilisation; K562 lysate, 10 uM; active = over 0.2 and 3.5 SD of the protein, either way, in both replicates (recomputed)
nilotinib = compound: Cc1cn(-c2cc(NC(=O)c3ccc(C)c(Nc4nccc(-c5cccnc5)n4)c3)cc(C(F)(F)F)c2)cn1 [nilotinib]
Method in brief: (§1)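 Soluble protein was defined as the supernatant remaining after 21,000xg for 90 min, following pooling of heated aliquots and adjustment to 0.5% NP-40 at 4°C. Before that, crude K562 extract at 1 mg/mL protein in PBS pH 7.4 with 1 mM MgCl2 was treated with 10 μM compound for 30 min and heated for 3 min across 48°C-58°C. Quantification used TMTpro 16plex LC-MS/MS with channel sums equalised, and values are log-two fold changes in thermal stability relative to solvent controls from duplicates.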

[1] = compound: Cc1nc(Nc2n[nH]c3c2CN(C(=O)N[C@H](CN(C)C)c2ccccc2)C3(C)C)c2sccc2n1
Method in brief: as §1

dasatinib = compound: Cc1nc(Nc2ncc(C(=O)Nc3c(C)cccc3Cl)s2)cc(N2CCN(CCO)CC2)n1 [dasatinib]
Method in brief: as §1

[2] = compound: Cc1ncc(-c2ccnc(Nc3ccc(S(C)(=O)=O)cc3)n2)n1C(C)C
Method in brief: as §1

[3] = compound: Cn1cc(-c2ccc3c(c2)CCN3C(=O)Cc2cccc(C(F)(F)F)c2)c2c(N)ncnc21
Method in brief: as §1

quisinostat = compound: Cn1cc(CNCC2CCN(c3ncc(C(=O)NO)cn3)CC2)c2ccccc21 [quisinostat]
Method in brief: as §1

tipifarnib = compound: Cn1cncc1[C@@](N)(c1ccc(Cl)cc1)c1ccc2c(c1)c(-c1cccc(Cl)c1)cc(=O)n2C [tipifarnib]
Method in brief: as §1

[4] = compound: NC(=O)Nc1cc(-c2cccc(F)c2)sc1C(=O)N[C@H]1CCCNC1
Method in brief: as §1

[5] = compound: NC(=O)c1cnc(N[C@@H]2CCCC[C@@H]2N)nc1Nc1cccc(-n2nccn2)c1
Method in brief: as §1

[6] = compound: NC1(c2ccc(-c3nc4ccn5c(=O)[nH]nc5c4cc3-c3ccccc3)cc2)CCC1
Method in brief: as §1

[7] = compound: NCC(=O)Nc1ccc(-n2nc(C(F)(F)F)cc2-c2ccc3c(ccc4ccccc43)c2)cc1
Method in brief: as §1

vorinostat = compound: O=C(CCCCCCC(=O)Nc1ccccc1)NO [vorinostat]
Method in brief: as §1

silmitasertib = compound: O=C(O)c1ccc2c(c1)nc(Nc1cccc(Cl)c1)c1ccncc12 [silmitasertib]
Method in brief: as §1

[8] = compound: O=C1NC(=O)C(c2cnc3ccccn23)=C1c1cn2c3c(cc(F)cc13)CN(C(=O)N1CCCCC1)CC2
Method in brief: as §1

entospletinib = compound: c1cn2cc(-c3ccc4cn[nH]c4c3)nc(Nc3ccc(N4CCOCC4)cc3)c2n1 [entospletinib]
Method in brief: as §1

Target	log2 fold change (nilotinib)	log2 fold change [1]	log2 fold change (dasatinib)	log2 fold change [2]	log2 fold change [3]	log2 fold change (quisinostat)	log2 fold change (tipifarnib)	log2 fold change [4]	log2 fold change [5]	log2 fold change [6]	log2 fold change [7]	log2 fold change (vorinostat)	log2 fold change (silmitasertib)	log2 fold change [8]	log2 fold change (entospletinib)
TRIM33 (UniProt H0Y612)	inactive: -0.021	inactive: 0.153	inactive: 0.043	inactive: 0.138	inactive: -0.033	inactive: -0.238	inactive: -0.052	inactive: 0.069	inactive: -0.036	inactive: -0.106	inactive: -0.039	active: -0.335	inactive: 0.061	inactive: 0.03	inactive: 0.084
TRIM25 (UniProt Q14258)	inactive: 0.014	inactive: 0.027	inactive: -0.003	inactive: -0.001	inactive: -0.002	inactive: 0.002	inactive: -0.001	inactive: -0.001	inactive: -0.019	inactive: 0.023	inactive: 0.013	active: -0.59	inactive: -0.046	inactive: -0.018	inactive: 0.011
TRIM11 (UniProt Q96F44)	inactive: -0.019	inactive: 0.053	inactive: -0.021	inactive: 0.055	inactive: 0.023	inactive: -0.104	inactive: -0.015	inactive: -0.019	inactive: -0.004	inactive: -0.023	inactive: 0.018	active: -0.222	inactive: 0.046	inactive: -0.035	inactive: -0.045
TSC2 isoform 4 (UniProt P49815)	inactive: 0.013	inactive: -0.024	inactive: -0.044	inactive: 0.098	inactive: -0.006	inactive: -0.097	inactive: -0.052	inactive: 0.036	inactive: 0.049	inactive: -0.059	inactive: 0.024	inactive: -0.154	inactive: -0.064	inactive: 0.067	inactive: 0.005
TRIP10 isoform 2 (UniProt Q15642)	inactive: 0.101	inactive: -0.023	inactive: 0.147	inactive: -0.008	inactive: 0.143	inactive: 0.014	inactive: 0.117	inactive: 0.069	inactive: -0.093	inactive: -0.178	inactive: -0.11	inactive: 0.016	inactive: -0.141	inactive: -0.159	inactive: 0.113
TRUB1 (UniProt Q8WWH5)	inactive: -0.008	inactive: -0.042	inactive: -0.064	inactive: 0.046	inactive: 0.025	inactive: -0.005	inactive: -0.015	inactive: 0.008	inactive: -0.102	inactive: 0	inactive: 0.044	inactive: -0.218	inactive: -0.021	inactive: 0.039	inactive: -0.007
TRMT112 (UniProt Q9UI30)	inactive: 0.051	inactive: -0.006	inactive: -0.015	inactive: -0.033	inactive: -0.032	inactive: 0.035	inactive: 0.052	inactive: -0.029	inactive: 0.005	inactive: 0.017	inactive: -0.1	inactive: 0.032	inactive: -0.024	inactive: 0.067	inactive: -0.006
TRAPPC3 (UniProt O43617)	inactive: 0.009	inactive: 0.026	inactive: 0.018	inactive: -0.054	inactive: -0.011	inactive: 0.102	inactive: 0.013	inactive: -0.025	inactive: -0.017	inactive: 0.077	inactive: -0.029	inactive: 0.035	inactive: 0.068	inactive: -0.062	inactive: 0.019
TRMT13 (UniProt Q9NUP7)	inactive: 0.031	inactive: -0.016	inactive: -0.016	inactive: -0.049	inactive: -0.04	inactive: 0.03	inactive: 0.008	inactive: -0.074	inactive: -0.04	inactive: 0.025	inactive: -0.077	inactive: -0.112	inactive: 0.024	inactive: -0.051	inactive: 0.024
TRMU (UniProt O75648)	inactive: -0.035	inactive: 0.076	inactive: -0.09	inactive: 0.002	inactive: -0.019	inactive: -0.058	inactive: -0.089	inactive: 0.002	inactive: 0.062	inactive: -0.066	inactive: -0.003	inactive: -0.104	inactive: 0.043	inactive: 0.006	inactive: 0.031
